Literature values in patent EP4186500A1, “MEK INHIBITORS FOR THE PREVENTION AND TREATMENT OF LONG COVID SYNDROME” (Atriva Therapeutics GmbH, priority 2021, dated 2023).
At least one compound was matched to its structure with a doubt left.

System: COVID-19
Details: human, in vivo; cited from earlier work

CCC(CC)COC(=O)[C@H](C)N[P@](=O)(OC[C@H]1O[C@@](C#N)(c2ccc3c(N)ncnn23)[C@H](O)[C@@H]1O)Oc1ccccc1 [Remdesivir]
length of hospitalization: decrease the length of hospitalization
mortality: no significant effect on mortality
